PMC7819943, “Rice protein-binding microarrays: a tool to detect cis-acting elements near promoter regions in rice”
This is one part of the list.

The sequences below were run against T1, OsSMF1 (Oryza sativa, UniProt Q6ZLB0 1-436) (assay: protein-binding microarray (RPBM); PBS, 2% BSA, 51.3 ng/ul salmon testes DNA, 50 uM zinc acetate, 200 nM TF, 25 C, 1 h; high values mean tight binding). Settings: protein: recombinant; tags: N-terminal polyhistidine and DsRed monomer fusion (pET32a); chain copies: 2; label: CyDye5-dUTP incorporated in the synthesized complementary strand; 3' TTTTT single-stranded linker to array surface; dsDNA, one strand shown.
T1 sequence: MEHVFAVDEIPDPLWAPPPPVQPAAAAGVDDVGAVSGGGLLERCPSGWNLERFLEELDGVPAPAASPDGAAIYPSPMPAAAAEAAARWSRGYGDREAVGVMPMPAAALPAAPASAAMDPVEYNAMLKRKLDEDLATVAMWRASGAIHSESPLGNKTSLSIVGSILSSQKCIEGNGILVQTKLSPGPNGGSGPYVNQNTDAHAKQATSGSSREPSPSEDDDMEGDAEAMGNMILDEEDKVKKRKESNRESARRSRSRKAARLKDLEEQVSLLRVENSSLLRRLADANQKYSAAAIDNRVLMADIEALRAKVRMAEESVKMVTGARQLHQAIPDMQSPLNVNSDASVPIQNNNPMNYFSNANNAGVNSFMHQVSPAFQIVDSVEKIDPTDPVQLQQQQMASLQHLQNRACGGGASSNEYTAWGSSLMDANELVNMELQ
In short: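 Transcription factors, each fused N-terminally to a polyhistidine tag and DsRed, were expressed in E. coli BL21-CodonPlus and purified on Ni–NTA. A custom Agilent array was made double-stranded by primer extension with Cy5-dUTP and blocked with 2% BSA. It was incubated with 200 nM protein in PBS, 2% BSA, salmon testes DNA and 50 µM zinc acetate at 25 °C for 1 h, then washed. The binding signal is per-feature fluorescence intensity (arbitrary units) read on an Axon 4000B scanner.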

Sequence	binding signal
TGGCAGGCCACTACTCCTCCACGTGGCCGTGTGGCGTGGGCGGAGTCACCTAGTGCAG	12200 fluorescence intensity (a.u.)
CAGCACAGATGTCACTAATCAATGTCATCATCCTCGCCTACGGAGTCACCTAGTGCAG	3660 fluorescence intensity (a.u.)
CTGTGCACACGTGCACTGCAAGCTTACCGCACGCATCCAACGGAGTCACCTAGTGCAG	3660 fluorescence intensity (a.u.)
CAACTCCTACGACACGGTACGGATGACGTTGCATCAAATGCGGAGTCACCTAGTGCAG	4220 fluorescence intensity (a.u.)
AAGACATGTGGGCCCACACACGTCGACTCAGCCAGTTGGACGGAGTCACCTAGTGCAG	3300 fluorescence intensity (a.u.)
GCGTTTAGATCCTTGGCAATGGGGATTTTAGCCTTGCATACGGAGTCACCTAGTGCAG	16400 fluorescence intensity (a.u.)
ATTAAGATCTGAAAATTAGCACACATGACACATCCCATTACGGAGTCACCTAGTGCAG	3950 fluorescence intensity (a.u.)
GCAAATAATGCGTCTCTTTTCTCTCATCATAGCCTTTCGACGGAGTCACCTAGTGCAG	3460 fluorescence intensity (a.u.)
GAGGGCGGAGGAGGTGGTGAGGGAGGAGGTGCGGAGGCTGCGGAGTCACCTAGTGCAG	4950 fluorescence intensity (a.u.)
TTCTTCTTGTATCGGCCAGTCGAGTCAGCAGAGATCGAGACGGAGTCACCTAGTGCAG	6020 fluorescence intensity (a.u.)
TCCGTCTCGCCTCGTCACCTCACCTCGGCATCACCCAGGTCGGAGTCACCTAGTGCAG	10800 fluorescence intensity (a.u.)
AGACGATCTCATGACATTAATTTGACCATCATTAGGCCTACGGAGTCACCTAGTGCAG	3180 fluorescence intensity (a.u.)
ACACTCCTGTGCCGCGTTTTCGCCGAGGCTGACAGGTGGGCGGAGTCACCTAGTGCAG	3860 fluorescence intensity (a.u.)
CCGCTTGATCTGCTGCCAACCACGACACGATCACACGATCCGGAGTCACCTAGTGCAG	3420 fluorescence intensity (a.u.)
GCGCCCCATGTCTGGATTGCACGTCAGGCGCCTGCTTGACCGGAGTCACCTAGTGCAG	5390 fluorescence intensity (a.u.)
ACAAGTAATCAAAGACGGCATGACACGTAGCTTTCTAGACCGGAGTCACCTAGTGCAG	8230 fluorescence intensity (a.u.)
TGCGGTCTCATCGCCGTCGTCATCGCCGCCGCCGCCGCCCCGGAGTCACCTAGTGCAG	5130 fluorescence intensity (a.u.)
GGTCCATTTAATTTGGCACAGATATCACAAGTGCTAGCTCCGGAGTCACCTAGTGCAG	27100 fluorescence intensity (a.u.)
GGGCCGGTTTACCCGCCCACGTCGCCACGAGCGGCGAACCCGGAGTCACCTAGTGCAG	3210 fluorescence intensity (a.u.)
CGTGCAGGCGGGCGGGGCCAGGAGATGGTGGCCAGCGTGCCGGAGTCACCTAGTGCAG	28100 fluorescence intensity (a.u.)
CCCGTTACTCTGAGCCGAGGGACCCACACGTCGACTCACCCGGAGTCACCTAGTGCAG	4840 fluorescence intensity (a.u.)

Sequence	binding signal
AGGAAAGGAAGAGGGAGGAGTCACTTAAGTATCCCGTCCTCGGAGTCACCTAGTGCAG	3540 fluorescence intensity (a.u.)
CCATAATTCAATCTTACAATGGCGTCATCTCTTTATTATTCGGAGTCACCTAGTGCAG	7580 fluorescence intensity (a.u.)
CCCCGCCGCCGTCATCCCCGGACGAGCTGCTCCCGGACCACGGAGTCACCTAGTGCAG	4230 fluorescence intensity (a.u.)
CTGCTTCTTCTCCTATAAGTAGGGCGATCTCACTCTCTCGCGGAGTCACCTAGTGCAG	23000 fluorescence intensity (a.u.)
TCACGCGTGGACGAGGCGGCCGCAGACAGCACCACGGCCACGGAGTCACCTAGTGCAG	3370 fluorescence intensity (a.u.)
GATTATCCTGCAGTCATGTCATGCTTCTCCCCTCCCTGCACGGAGTCACCTAGTGCAG	3760 fluorescence intensity (a.u.)
ATCCATAGCGGTTAGTAGCCCTGACGACGATGGTGTTGTTCGGAGTCACCTAGTGCAG	3140 fluorescence intensity (a.u.)
AACTACCCACTCTCAGCGCCACACCTCGATGTCATTGAGGCGGAGTCACCTAGTGCAG	4840 fluorescence intensity (a.u.)
TATGATGCATACATCACAAATCCTAGGTGTATAGTGTCTCCGGAGTCACCTAGTGCAG	3420 fluorescence intensity (a.u.)
CGGCTGCAGGCGAGCTCGCGGTGGGACGGCCAGCTCCGAGCGGAGTCACCTAGTGCAG	31100 fluorescence intensity (a.u.)
CAATCGATGTAAGGTGTCGTTTGTGTTAGATAGAGCAGTGCGGAGTCACCTAGTGCAG	33800 fluorescence intensity (a.u.)
ACTCCTTTATTAGTATTTGTTTCTGTCATCACTGTGCTTCCGGAGTCACCTAGTGCAG	3590 fluorescence intensity (a.u.)
CATTGGGCTATATAATTAACTTTATGATTCATCCTCATTCCGGAGTCACCTAGTGCAG	3510 fluorescence intensity (a.u.)
AAATACCGTACACGTAGGTGTAGAAACTGTTGCCGTATTTCGGAGTCACCTAGTGCAG	7220 fluorescence intensity (a.u.)
CCCACGGAGCCGCCACATCACGGATCCCCACGCCGGGGCGCGGAGTCACCTAGTGCAG	7180 fluorescence intensity (a.u.)
ATGCCATCGTACATAAACGCCTCGTGTTCATGTGTTAGGCCGGAGTCACCTAGTGCAG	5260 fluorescence intensity (a.u.)
AGTGTGTGCGTGCGTCAACACACAGCTCAAGCTTACGCGGCGGAGTCACCTAGTGCAG	6860 fluorescence intensity (a.u.)
AGCCCTCTTAGCTCTTTTGCAAGCGGCCCTCTAGAGCAAACGGAGTCACCTAGTGCAG	26500 fluorescence intensity (a.u.)
ACGCCACAAGAGGTTGAGGTTGAGGATGGCGGCTACAAGCCGGAGTCACCTAGTGCAG	24500 fluorescence intensity (a.u.)
TTATTATTATTATTATGTTTTCCTTGTTACCTTCTGAGCACGGAGTCACCTAGTGCAG	3730 fluorescence intensity (a.u.)
CTGCCTTGCGTGCGTATGGTAGGAAAGGGAAAGCGTTTGCCGGAGTCACCTAGTGCAG	3920 fluorescence intensity (a.u.)

Shown comma-delimited: part of the list above.
Sequence,binding signal
TTCTTCTTGTATCGGCCAGTCGAGTCAGCAGAGATCGAGACGGAGTCACCTAGTGCAG,6020 fluorescence intensity (a.u.)
TCCGTCTCGCCTCGTCACCTCACCTCGGCATCACCCAGGTCGGAGTCACCTAGTGCAG,10800 fluorescence intensity (a.u.)
